From article PMC4066782, “The telomerase inhibitor Gno1p/PINX1 activates the helicase Prp43p during ribosome biogenesis” (Nucleic Acids Research, 2014)
Results are given in words; binding and its absence hold for the method and conditions named. In cells and extracts the contact can be indirect. Some results given as binding are weak or reduced against the parent protein; the word gives no strength. Tags and fused reporters may be left off the sequences shown.

Amino acid sequences for entries named in this document (tags omitted).
UniProt P40160: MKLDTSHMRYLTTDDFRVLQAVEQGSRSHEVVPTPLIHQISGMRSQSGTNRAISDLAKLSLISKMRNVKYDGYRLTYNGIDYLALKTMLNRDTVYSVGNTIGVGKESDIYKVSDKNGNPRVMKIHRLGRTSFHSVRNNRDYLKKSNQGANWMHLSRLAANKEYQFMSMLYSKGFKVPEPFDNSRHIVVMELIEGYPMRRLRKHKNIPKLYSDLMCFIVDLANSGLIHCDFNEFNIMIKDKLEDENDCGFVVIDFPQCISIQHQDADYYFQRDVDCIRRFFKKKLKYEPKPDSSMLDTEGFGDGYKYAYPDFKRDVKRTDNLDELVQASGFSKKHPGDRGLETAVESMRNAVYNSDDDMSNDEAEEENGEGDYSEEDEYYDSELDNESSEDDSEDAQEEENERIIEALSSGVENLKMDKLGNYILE
UniProt P34241: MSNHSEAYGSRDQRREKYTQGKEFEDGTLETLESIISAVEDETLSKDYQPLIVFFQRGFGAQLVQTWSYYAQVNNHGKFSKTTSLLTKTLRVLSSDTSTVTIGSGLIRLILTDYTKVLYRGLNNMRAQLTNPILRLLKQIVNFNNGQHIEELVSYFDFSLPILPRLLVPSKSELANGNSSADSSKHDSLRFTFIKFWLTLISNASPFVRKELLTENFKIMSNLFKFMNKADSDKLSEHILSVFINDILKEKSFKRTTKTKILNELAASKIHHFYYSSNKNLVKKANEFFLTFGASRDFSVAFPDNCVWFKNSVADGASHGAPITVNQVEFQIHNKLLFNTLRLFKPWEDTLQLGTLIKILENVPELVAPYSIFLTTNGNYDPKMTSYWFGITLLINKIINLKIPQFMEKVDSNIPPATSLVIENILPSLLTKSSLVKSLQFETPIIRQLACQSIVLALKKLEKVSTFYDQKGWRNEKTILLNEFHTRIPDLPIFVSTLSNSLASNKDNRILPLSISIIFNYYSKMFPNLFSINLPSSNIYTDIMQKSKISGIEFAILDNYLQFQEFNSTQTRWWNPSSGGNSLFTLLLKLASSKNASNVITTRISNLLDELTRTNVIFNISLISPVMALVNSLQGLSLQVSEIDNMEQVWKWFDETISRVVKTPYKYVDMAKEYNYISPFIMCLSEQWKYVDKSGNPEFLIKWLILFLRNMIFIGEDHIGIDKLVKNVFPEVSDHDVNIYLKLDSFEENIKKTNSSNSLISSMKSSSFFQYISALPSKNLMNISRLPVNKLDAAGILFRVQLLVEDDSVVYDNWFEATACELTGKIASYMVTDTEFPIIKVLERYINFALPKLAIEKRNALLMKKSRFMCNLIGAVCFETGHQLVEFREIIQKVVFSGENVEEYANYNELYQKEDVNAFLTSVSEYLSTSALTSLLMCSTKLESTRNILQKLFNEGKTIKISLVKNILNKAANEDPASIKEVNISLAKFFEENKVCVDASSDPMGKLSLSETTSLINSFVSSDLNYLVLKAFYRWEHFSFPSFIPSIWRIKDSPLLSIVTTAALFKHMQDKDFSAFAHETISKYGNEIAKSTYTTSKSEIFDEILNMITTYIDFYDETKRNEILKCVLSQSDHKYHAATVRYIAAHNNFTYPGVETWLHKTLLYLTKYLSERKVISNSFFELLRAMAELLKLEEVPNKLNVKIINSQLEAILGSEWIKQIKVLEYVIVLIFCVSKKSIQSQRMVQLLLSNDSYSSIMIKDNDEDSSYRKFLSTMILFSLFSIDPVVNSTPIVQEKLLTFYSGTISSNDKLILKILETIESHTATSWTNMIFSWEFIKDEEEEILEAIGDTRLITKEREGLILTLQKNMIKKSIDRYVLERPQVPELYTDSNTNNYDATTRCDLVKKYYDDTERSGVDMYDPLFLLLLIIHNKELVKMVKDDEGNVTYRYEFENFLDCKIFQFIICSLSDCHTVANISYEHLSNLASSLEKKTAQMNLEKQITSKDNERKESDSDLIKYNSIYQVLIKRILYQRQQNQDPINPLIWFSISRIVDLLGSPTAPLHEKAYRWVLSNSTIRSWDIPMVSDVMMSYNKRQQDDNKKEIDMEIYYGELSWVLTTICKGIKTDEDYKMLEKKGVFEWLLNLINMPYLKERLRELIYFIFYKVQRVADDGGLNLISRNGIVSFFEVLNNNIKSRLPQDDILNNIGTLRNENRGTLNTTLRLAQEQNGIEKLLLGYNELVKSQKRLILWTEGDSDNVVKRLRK

Columns and labels:
Assay in all cases: co-IP; IgG sepharose beads precipitate the TAP- or ZZ-tagged protein from total yeast extracts; HA-tagged protein detected by western with anti-HA antibodies
[1] = target: T1, Rix1p-TAP (S. cerevisiae) (UniProt P38883)
T1 sequence: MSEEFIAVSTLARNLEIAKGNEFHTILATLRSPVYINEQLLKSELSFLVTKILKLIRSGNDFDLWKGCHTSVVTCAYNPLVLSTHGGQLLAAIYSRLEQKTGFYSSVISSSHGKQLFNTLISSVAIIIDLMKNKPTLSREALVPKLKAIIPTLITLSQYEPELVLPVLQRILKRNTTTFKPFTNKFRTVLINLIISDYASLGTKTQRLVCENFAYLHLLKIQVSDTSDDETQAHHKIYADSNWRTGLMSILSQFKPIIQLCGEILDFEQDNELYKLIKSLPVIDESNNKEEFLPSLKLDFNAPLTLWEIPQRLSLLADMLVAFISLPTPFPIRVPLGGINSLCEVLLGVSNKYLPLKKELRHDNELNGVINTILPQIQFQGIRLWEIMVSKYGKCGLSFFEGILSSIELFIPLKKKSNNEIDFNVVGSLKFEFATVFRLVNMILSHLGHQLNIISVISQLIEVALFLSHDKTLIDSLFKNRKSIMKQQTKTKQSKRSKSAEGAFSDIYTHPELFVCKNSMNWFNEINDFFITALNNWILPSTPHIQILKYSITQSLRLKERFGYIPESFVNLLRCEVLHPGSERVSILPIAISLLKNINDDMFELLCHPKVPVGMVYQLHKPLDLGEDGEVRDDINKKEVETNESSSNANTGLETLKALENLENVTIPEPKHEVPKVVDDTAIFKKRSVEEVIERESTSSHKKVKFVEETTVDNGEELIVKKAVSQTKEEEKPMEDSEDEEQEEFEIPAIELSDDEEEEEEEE

[2] = target: Rio2p-TAP (S. cerevisiae) (UniProt P40160)
[3] = target: T2, Utp21p-TAP (S. cerevisiae) (UniProt Q06078)
T2 sequence: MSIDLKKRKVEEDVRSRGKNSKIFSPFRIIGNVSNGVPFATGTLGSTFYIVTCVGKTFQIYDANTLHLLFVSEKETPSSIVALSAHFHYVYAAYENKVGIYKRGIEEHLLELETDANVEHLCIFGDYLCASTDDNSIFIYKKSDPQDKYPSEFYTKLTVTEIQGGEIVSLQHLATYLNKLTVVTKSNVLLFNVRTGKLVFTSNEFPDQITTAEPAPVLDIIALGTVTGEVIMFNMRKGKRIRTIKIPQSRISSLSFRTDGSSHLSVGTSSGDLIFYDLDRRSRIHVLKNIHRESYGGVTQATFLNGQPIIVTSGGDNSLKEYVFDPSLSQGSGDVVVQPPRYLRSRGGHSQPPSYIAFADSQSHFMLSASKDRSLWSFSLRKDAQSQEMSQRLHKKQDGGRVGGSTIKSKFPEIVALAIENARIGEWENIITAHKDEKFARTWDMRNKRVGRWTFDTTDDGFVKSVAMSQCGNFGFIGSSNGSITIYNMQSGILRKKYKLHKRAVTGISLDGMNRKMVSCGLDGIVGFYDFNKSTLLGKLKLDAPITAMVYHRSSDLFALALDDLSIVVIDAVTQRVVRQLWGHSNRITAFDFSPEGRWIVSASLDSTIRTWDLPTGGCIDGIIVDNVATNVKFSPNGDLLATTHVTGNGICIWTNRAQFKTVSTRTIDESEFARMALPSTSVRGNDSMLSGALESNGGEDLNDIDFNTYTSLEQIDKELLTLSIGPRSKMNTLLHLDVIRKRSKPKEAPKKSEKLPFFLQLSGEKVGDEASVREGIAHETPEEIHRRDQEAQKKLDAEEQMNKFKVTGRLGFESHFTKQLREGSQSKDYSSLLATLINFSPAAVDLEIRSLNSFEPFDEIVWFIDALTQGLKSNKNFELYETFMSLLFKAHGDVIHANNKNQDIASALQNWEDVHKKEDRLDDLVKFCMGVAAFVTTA

Npa1p-ZZ (S. cerevisiae) = Npa1p-ZZ (S. cerevisiae) (UniProt P34241)
[4] = target: T3, Ssf1p-TAP (S. cerevisiae) (UniProt P38789)
T3 sequence: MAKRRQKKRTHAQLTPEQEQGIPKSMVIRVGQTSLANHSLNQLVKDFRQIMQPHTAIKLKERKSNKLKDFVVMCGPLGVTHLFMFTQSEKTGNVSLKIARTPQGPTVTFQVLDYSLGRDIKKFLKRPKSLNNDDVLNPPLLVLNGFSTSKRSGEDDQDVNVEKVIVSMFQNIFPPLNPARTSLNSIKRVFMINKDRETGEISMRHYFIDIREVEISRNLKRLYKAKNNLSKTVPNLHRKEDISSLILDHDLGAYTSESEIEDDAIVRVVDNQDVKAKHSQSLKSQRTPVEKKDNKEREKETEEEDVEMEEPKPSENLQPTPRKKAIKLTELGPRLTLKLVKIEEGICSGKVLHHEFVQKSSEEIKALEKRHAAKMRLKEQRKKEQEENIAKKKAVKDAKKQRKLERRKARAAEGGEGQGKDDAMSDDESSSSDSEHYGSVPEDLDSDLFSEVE

B1: Gno1p-HA (GNO1-HA-TRP1 cassette, made with plasmid pFA6a-3HA-TRP1) (protein, UniProt P53335 1-271)
chain: MGLAATRTKQRFGLDPRNTAWSNDTSRFGHQFLEKFGWKPGMGLGLSPMNSNTSHIKVSIKDDNVGLGAKLKRKDKKDEFDNGECAGLDVFQRILGRLNGKESKISEELDTQRKQKIIDGKWGIHFVKGEVLASTWDPKTHKLRNYSNAKKRKREGDDSEDEDDDDKEDKDSDKKKHKKHKKHKKDKKKDKKDKKEHKKHKKEEKRLKKEKRAEKTKETKKTSKLKSSESASNIPDAVNTRLSVRSKWIKQKRAALMDSKALNEIFMITND
- binding [1]: no binding
- binding [2]: no binding
- binding [3]: binds
- binding (Npa1p-ZZ (S. cerevisiae)): binds
- binding [4]: binds
